Results as given in publication PMC7706265.

The chains behind the UniProt entries cited, without tags or fusion partners. Where a name states a change or a piece, a line headed by the entry shows the natural chain unless it says otherwise.
UniProt A2AWL7: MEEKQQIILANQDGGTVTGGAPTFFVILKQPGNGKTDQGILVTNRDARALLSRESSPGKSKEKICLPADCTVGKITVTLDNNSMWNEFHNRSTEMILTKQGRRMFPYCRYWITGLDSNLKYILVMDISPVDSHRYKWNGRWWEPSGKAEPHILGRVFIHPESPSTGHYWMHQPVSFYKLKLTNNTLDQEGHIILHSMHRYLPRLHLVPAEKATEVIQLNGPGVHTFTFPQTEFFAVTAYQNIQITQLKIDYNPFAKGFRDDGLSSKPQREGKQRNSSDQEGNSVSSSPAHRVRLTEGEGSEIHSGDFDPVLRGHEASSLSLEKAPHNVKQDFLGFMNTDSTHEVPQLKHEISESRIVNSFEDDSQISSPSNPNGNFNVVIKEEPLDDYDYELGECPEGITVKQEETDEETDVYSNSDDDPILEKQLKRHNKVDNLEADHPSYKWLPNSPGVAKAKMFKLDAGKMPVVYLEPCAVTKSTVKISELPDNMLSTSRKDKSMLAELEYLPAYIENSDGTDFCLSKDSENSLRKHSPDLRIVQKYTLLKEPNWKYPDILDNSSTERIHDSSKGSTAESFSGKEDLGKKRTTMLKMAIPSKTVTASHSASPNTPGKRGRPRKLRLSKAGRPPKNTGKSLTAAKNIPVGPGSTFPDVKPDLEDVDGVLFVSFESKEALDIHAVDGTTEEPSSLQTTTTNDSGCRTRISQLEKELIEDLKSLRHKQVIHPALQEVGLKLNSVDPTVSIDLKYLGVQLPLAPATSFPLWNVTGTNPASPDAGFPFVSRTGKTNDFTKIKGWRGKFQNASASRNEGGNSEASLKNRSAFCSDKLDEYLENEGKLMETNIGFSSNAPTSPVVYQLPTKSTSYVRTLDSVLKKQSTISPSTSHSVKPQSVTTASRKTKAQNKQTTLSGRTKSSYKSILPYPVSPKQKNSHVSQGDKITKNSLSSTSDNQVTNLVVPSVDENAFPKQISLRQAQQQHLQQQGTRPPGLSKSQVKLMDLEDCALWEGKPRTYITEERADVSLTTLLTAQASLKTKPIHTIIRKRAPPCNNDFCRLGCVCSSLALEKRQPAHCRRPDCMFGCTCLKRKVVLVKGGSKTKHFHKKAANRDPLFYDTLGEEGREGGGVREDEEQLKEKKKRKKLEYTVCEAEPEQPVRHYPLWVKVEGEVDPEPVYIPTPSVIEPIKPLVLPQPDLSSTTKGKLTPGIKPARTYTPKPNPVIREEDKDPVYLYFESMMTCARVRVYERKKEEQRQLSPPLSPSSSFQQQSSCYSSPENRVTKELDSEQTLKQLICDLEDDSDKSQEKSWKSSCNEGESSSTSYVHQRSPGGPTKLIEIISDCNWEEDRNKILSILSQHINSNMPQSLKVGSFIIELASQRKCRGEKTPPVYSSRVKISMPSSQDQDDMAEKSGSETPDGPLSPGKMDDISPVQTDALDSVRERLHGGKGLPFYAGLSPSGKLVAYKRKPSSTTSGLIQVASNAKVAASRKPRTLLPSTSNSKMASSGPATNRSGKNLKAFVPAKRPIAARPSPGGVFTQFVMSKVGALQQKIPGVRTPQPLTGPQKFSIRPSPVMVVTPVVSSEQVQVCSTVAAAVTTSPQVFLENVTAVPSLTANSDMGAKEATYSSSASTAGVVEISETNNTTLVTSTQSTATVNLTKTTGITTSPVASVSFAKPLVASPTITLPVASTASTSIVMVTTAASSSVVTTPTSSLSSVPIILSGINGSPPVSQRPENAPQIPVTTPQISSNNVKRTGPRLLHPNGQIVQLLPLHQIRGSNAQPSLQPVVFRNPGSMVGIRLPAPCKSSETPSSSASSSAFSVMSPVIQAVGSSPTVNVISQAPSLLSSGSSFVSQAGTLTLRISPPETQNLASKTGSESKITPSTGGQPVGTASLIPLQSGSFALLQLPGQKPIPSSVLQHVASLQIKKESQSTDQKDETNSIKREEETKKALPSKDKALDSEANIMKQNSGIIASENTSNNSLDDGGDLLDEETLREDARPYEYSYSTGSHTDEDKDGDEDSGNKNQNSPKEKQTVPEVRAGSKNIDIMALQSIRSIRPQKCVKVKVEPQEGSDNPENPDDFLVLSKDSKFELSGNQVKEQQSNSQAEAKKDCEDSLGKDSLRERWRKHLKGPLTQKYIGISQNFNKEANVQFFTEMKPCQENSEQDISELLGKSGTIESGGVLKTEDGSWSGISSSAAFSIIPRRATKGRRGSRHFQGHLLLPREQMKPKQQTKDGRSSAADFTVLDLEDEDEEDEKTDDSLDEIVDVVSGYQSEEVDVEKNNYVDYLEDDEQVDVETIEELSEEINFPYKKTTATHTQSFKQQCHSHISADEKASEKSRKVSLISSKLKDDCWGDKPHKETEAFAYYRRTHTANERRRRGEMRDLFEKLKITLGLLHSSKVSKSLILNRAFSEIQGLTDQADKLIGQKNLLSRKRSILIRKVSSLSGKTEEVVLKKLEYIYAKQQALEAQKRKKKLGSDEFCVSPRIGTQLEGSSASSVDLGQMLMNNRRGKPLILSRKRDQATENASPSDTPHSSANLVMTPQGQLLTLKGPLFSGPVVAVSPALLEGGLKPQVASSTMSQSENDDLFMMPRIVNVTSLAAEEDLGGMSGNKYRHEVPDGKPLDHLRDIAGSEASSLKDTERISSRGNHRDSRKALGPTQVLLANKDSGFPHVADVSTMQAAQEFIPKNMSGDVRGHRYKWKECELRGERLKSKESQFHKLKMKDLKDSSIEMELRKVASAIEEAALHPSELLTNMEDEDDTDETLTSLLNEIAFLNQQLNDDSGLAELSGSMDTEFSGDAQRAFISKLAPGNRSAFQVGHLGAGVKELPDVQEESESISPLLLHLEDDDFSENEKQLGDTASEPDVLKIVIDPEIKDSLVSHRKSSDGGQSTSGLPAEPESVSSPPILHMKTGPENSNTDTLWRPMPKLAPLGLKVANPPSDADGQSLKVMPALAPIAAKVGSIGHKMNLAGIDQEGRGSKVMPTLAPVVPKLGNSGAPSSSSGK
UniProt A2A791: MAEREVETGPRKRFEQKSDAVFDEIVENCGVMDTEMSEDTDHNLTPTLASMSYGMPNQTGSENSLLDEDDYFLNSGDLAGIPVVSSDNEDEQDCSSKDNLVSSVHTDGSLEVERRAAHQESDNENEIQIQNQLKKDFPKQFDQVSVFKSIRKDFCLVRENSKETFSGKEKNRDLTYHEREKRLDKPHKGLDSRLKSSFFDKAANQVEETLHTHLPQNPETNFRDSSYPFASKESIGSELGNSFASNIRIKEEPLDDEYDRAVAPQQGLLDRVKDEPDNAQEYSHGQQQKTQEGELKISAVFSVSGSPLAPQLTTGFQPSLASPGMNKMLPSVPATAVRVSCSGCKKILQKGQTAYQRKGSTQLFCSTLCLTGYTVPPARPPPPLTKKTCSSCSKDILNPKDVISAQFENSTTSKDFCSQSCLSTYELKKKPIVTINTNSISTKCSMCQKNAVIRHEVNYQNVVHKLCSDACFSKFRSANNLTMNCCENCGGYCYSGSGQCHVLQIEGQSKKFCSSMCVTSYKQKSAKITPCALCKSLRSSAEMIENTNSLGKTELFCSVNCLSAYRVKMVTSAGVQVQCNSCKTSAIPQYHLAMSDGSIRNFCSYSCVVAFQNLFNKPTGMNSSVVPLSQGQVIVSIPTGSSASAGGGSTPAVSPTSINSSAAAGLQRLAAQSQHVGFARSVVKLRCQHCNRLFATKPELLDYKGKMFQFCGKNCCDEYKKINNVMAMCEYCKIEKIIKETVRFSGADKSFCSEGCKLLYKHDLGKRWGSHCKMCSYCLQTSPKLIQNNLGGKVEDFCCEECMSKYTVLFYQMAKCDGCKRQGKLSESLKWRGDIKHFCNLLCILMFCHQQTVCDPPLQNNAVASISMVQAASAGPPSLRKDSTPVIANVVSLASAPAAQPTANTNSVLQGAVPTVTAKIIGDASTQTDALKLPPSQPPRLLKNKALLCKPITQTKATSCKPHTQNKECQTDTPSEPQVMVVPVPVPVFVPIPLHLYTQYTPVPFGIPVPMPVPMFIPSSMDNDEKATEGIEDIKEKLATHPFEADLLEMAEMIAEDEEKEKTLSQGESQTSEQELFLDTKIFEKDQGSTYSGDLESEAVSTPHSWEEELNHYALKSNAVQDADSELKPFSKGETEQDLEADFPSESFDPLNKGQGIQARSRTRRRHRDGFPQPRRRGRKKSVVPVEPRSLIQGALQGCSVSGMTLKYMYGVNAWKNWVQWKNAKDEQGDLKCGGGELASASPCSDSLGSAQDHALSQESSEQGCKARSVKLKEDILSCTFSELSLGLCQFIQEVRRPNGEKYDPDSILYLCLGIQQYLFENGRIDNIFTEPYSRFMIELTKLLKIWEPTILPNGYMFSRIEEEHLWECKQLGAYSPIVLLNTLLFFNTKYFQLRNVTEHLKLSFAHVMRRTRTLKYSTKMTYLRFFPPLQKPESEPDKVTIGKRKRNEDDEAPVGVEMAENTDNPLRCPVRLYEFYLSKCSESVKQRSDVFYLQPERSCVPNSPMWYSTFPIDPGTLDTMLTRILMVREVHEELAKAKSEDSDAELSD
UniProt B2RRF6: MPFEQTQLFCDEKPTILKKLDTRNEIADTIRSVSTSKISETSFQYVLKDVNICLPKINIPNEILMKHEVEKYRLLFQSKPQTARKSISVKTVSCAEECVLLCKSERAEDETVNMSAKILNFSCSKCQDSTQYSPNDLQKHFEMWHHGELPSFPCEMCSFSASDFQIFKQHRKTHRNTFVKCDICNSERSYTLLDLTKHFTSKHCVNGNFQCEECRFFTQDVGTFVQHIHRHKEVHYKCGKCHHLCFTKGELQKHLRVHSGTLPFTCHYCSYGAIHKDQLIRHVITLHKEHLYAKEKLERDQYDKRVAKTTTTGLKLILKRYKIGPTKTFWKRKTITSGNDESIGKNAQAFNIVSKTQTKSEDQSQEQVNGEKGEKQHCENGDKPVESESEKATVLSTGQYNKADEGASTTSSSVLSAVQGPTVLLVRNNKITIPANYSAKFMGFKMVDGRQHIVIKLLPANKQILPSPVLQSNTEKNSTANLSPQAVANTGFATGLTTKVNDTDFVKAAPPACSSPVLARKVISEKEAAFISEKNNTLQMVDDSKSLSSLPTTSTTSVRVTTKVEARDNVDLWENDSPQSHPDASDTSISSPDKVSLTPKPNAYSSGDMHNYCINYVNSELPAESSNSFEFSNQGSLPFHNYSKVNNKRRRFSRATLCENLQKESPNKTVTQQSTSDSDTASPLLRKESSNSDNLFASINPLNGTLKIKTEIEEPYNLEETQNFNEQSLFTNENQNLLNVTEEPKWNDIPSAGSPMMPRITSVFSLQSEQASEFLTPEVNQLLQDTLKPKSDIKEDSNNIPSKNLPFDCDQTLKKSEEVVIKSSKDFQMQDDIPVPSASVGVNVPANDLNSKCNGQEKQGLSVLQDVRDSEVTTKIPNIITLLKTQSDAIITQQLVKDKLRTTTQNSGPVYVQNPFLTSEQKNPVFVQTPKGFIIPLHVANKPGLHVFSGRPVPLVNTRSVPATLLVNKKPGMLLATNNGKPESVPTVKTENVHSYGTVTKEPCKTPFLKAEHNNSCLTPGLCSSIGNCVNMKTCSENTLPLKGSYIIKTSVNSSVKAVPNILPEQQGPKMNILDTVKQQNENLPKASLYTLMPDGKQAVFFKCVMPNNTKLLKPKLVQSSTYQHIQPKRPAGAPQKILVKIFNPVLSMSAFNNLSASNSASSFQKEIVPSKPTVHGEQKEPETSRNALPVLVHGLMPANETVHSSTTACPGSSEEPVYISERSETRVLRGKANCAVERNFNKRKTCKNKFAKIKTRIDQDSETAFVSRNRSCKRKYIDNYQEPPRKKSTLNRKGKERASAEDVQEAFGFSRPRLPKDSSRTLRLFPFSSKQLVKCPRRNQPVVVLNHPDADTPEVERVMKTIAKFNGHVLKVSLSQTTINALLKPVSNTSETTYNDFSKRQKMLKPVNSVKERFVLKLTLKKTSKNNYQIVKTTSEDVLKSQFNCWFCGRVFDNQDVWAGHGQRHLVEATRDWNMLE

These substances were tested against T1, 3xFLAG-tagged ATF7IP WT (transiently expressed in HEK293T cells) (mouse) (UniProt Q7TT18) (assay: co-IP; HEK293T cells transiently co-transfected with 3xFLAG-ATF7IP (WT or dFNIII) and V5-tagged proteins; precipitated with anti-FLAG M2 affinity gel, 4 °C; western blot; which lysis buffer was used is not said).
T1 sequence: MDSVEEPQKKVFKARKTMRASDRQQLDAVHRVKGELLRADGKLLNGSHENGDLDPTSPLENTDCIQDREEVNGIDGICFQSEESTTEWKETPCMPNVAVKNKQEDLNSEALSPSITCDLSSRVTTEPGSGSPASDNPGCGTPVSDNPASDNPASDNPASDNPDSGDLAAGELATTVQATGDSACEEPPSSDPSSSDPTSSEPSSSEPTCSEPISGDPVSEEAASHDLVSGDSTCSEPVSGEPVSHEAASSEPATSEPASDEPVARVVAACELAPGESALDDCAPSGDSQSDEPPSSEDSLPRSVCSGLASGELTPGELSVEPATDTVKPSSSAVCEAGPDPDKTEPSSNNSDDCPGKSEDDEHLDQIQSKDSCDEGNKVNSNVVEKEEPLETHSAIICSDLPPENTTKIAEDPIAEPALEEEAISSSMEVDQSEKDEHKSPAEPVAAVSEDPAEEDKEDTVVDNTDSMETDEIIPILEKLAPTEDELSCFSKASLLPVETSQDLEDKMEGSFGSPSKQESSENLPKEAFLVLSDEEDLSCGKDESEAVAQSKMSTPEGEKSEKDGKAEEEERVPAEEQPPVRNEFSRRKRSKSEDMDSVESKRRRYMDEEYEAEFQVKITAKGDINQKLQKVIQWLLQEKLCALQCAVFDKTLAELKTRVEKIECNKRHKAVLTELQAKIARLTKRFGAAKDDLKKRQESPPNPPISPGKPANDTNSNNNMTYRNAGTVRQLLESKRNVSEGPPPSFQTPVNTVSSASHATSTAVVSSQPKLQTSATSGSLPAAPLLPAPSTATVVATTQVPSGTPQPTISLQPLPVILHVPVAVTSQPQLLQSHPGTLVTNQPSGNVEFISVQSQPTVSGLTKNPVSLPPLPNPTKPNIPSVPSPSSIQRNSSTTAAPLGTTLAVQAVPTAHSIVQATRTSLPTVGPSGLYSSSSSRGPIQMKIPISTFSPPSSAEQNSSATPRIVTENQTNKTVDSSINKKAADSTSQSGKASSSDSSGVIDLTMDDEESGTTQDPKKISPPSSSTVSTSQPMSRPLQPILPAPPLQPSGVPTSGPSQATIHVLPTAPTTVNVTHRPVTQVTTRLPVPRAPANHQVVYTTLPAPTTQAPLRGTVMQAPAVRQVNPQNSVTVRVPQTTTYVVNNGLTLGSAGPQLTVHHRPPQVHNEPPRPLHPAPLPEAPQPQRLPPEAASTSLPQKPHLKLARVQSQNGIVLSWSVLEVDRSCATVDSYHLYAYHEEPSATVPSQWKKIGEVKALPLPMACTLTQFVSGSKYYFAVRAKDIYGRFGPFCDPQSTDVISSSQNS
For “MGA C-terminus (residues 2362-3003) with mutations at the FAM (from UniProt A2AWL7) (domain or fragment)”, the binding was “no binding”.
In the case of “ZMYM4 with mutations at the FAM (from UniProt A2A791)”, the binding is reported as “no binding”.
For “ZFP518A with mutations at the FAM (from UniProt B2RRF6)”, the binding was “no binding”.

Results are given in words; binding and its absence hold for the method and conditions named. In cells and extracts the contact can be indirect. Sequences can lack the tags named with a protein.
